These are yes or no findings as the source states them, for the method shown.
Key:
[1] = molecular target: FH 10–11 (complement factor H, CCP modules 10–11) (human) (UniProt P08603); assay: SEC; elution volume from a calibrated size-exclusion column (Hi-Load 16/60 Superdex 75) during purification; both purified
[2] = molecular target: FH 10–11 (complement factor H, CCP modules 10–11) (human) (UniProt P08603); assay: SAXS; synchrotron SAXS, 20 °C, phosphate-buffered saline, 0.3–10.7 mg/mL, extrapolated to infinite dilution; mass from I(0) against bovine serum albumin and from the dummy-atom model volume; both purified
[3] = molecular target: FH 10–12 (complement factor H, CCP modules 10–12) (human) (UniProt P08603); assay: SEC; elution volume from a calibrated size-exclusion column (Hi-Load 16/60 Superdex 75) during purification; both purified
[4] = molecular target: FH 10–12 (complement factor H, CCP modules 10–12) (human) (UniProt P08603); assay: SAXS; synchrotron SAXS, 20 °C, phosphate-buffered saline, 0.3–10.7 mg/mL, extrapolated to infinite dilution; mass from I(0) against bovine serum albumin and from the dummy-atom model volume; both purified
[5] = molecular target: FH 11–12 (complement factor H, CCP modules 11–12) (human) (UniProt P08603); assay: SEC; elution volume from a calibrated size-exclusion column (Hi-Load 16/60 Superdex 75) during purification; both purified
[6] = molecular target: FH 11–12 (complement factor H, CCP modules 11–12) (human) (UniProt P08603); assay: SAXS; synchrotron SAXS, 20 °C, phosphate-buffered saline, 0.3–10.7 mg/mL, extrapolated to infinite dilution; mass from I(0) against bovine serum albumin and from the dummy-atom model volume; both purified

Amino acid sequences for entries named in this document (tags omitted). A change or cut given only in a name is not applied to a line headed by its entry. Chains listed by the source or under a name are the forms on record and can include a tag or linker. Residues count along the entry.
FH 10–12 (complement factor H, CCP modules 10–12) (P08603, residues 566-745): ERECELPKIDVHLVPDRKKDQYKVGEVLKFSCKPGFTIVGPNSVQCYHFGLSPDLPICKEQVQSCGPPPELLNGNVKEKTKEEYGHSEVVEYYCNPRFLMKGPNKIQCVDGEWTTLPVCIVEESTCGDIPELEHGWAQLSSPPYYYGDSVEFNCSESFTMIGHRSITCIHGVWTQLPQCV
FH 10–11 (complement factor H, CCP modules 10–11) (P08603, form named): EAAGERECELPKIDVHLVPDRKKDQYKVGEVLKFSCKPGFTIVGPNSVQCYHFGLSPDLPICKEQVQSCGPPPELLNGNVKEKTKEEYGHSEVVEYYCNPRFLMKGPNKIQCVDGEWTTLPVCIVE
FH 11–12 (complement factor H, CCP modules 11–12) (P08603, form named): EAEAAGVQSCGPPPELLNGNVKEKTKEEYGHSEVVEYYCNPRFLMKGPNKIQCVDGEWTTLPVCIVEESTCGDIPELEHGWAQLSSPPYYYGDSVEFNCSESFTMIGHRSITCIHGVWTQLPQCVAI

## FH 10–11 (complement factor H, CCP modules 10–11) (from UniProt P08603 566-687) (domain or fragment)
[1]
  binding: no binding
[2]
  binding: no binding (tested: 0.3–10.7 mg/mL)

## FH 10–12 (complement factor H, CCP modules 10–12) (from UniProt P08603 566-745) (domain or fragment)
[3]
  binding: no binding
[4]
  binding: no binding (tested: 0.3–10.7 mg/mL)

## FH 11–12 (complement factor H, CCP modules 11–12) (from UniProt P08603 627-747) (domain or fragment)
[5]
  binding: no binding
[6]
  binding: no binding (tested: 0.3–10.7 mg/mL)
